These results are taken from PubChem BioAssay AID1487 (National Center for Advancing Translational Sciences (NCATS), 2009).

This assay in a line: qHTS Assay for Modulators of Lamin A Splicing. Particulars: HeLa LMNA splicing GFP/RFP minigene ratio, 48 h. Put shortly: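 Read-out is the ratio of GFP to DsRed2 object intensity, acquired by 488 nm laser-scanning cytometry on HeLa lamin A-EGFP minigene reporter cells. Compound incubation 48 hrs at 37 °C in Opti-MEM with 2% FBS; DMSO 0.5% final.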
The mark [1] stands for this setting: measured here: GFP splicing reporter channel.
Where [2] appears, read: measured here: RFP viability control channel.

Where “and” joins values, the source holds several entries; their conditions need not be identical. Equal values may be shown once. Some of the results follow. Further columns of the screen follow, without active or inactive calls. The list favours compounds with an active or inconclusive main result. The note in brackets gives the kind of curve behind each potency; many fits are weak.

Turning to `Oc1ccc(/C=C/c2ccc3ccccc3n2)cc1`, the AC50 under setting [1] was 20 µM [falling, partial curve, poor fit].

As for `Cc1cccc(N2CCN(C(=O)Cc3c(C(=O)O)[nH]c4ccc(Cl)cc34)CC2)c1C`, the AC50 under setting [2] is 17.8 µM [rising, single point].

Consider `Cc1ccc(-c2cc(C(=O)N/N=C/c3c(C)nn(-c4ccccc4)c3C)n[nH]2)s1`, for which, under setting [1], the AC50 was 22.4 µM [falling, partial curve].

As for `O=C(/C(=N\Nc1ccc([N+](=O)[O-])cc1)Sc1nnnn1-c1ccccc1)c1ccccc1`, under setting [2], the AC50 was 7.08 µM [rising, partial curve].

In the case of `CCC(=O)N1CCCc2cc(S(=O)(=O)N3CCN(c4ccccn4)CC3)ccc21`, the concentration at half-maximal activity (AC50) under setting [2] is 14.1 µM [rising, single point].

Consider `O=C(NCc1ccco1)c1ccc(Cn2c(=S)[nH]c3ccccc3c2=O)cc1`, for which, under setting [2], the AC50 was 14.1 µM [falling, single point].

On to `O=C(CSc1ccccc1)Nc1ccccc1C(=O)O`, for which, under setting [2], the AC50 is 35.5 µM [rising, single point].

For the compound `CC(C)c1onc(C(=O)NCc2cccs2)c1[N+](=O)[O-]`, the AC50 under setting [1] was 1.12 µM [rising, partial curve].

Turning to `CCOc1ccccc1CNC(=O)c1cc2n(n1)CCCN(Cc1ccc(C)cc1)C2=O`, the AC50 by setting is: under setting [1], 35.5 µM [falling, single point]; under setting [2], 35.5 µM [falling, single point].

As to `COc1ccccc1-c1cc(SC)c(C#N)c(=O)o1`, the AC50 under setting [2] is 31.6 µM [rising, single point].

Regarding `NC(=O)Cc1nc2scc(-c3ccc(Cl)cc3)c2c(=O)[nH]1`, under setting [1], the AC50 was 1.26 µM [rising, partial curve].

On to `COC(=O)c1ccccc1NC(=O)c1ccc2nccnc2c1`, for which the AC50 under setting [2] was 4.47 µM [rising, single point].

Take `Cc1ccc(-n2c(C)cc(/C=N/NC(=O)CC3(C)OCCO3)c2C)c(C)c1`: the AC50 under setting [2] was 25.1 µM [rising, single point].

As to `O=C(Nc1ccc(OC(F)(F)F)cc1)c1nc2ccccc2nc1N1CCCCC1`, the concentration at half-maximal activity (AC50) is 35.5 µM [falling, single point] under setting [1] and 35.5 µM [falling, single point] under setting [2].

As to `C/C(=N\NC(=O)C1(C)CC1(Br)Br)c1cccc(NC(=O)C2CCC2)c1` (configuration not stated), the AC50 under setting [2] was 0.251 µM [rising, partial curve].

`O=S(=O)(Nc1ccc2nc(-c3ccco3)[nH]c2c1)c1ccccc1`: under setting [2], the AC50 was 14.1 µM [rising, single point].

As for `COC(=O)Cc1ccc(Oc2ncc(C(F)(F)F)cc2Cl)cc1`, the AC50 reads like this: under setting [1], 3.98 µM [falling, partial curve, poor fit]; under setting [2], 6.31 µM [falling, partial curve, poor fit].

For `CC(CCc1ccccc1)NC(=O)c1ccc(Cl)nc1` (configuration not stated), the AC50 under setting [2] is 6.31 µM [falling, single point].

`Cc1ccc(-c2ccc(C(=O)O)[nH]2)cc1`: the AC50 under setting [1] was 35.5 µM [rising, single point].

With `COc1ccc(COc2ccsc2C(=O)Nc2ccc(Cl)cc2)cc1`, the AC50 is, setting by setting: under setting [1], 35.5 µM [falling, single point]; under setting [2], 14.1 µM [falling, single point].

Regarding `O=C(O)CP(=O)(O)O`, the AC50 was 0.447 µM [falling, full curve, poor fit] under setting [1]; 0.891 nM [falling, full curve, poor fit] and 398 nM [falling, full curve] under setting [2].

For `Cc1cc(C)cc(N(C(=O)c2cc3ccccc3oc2=O)C2C=CS(=O)(=O)C2)c1` (configuration not stated), the AC50 under setting [2] was 2 µM [rising, partial curve, poor fit].

Take `CCOC(=O)c1cc(CC)sc1NC(=O)COc1ccc2c(C)cc(=O)oc2c1`: the AC50 under setting [2] was 17.8 µM [rising, partial curve, poor fit].

Turning to `O=[N+]([O-])c1c(NCCO)cc(Sc2nc3ccccc3s2)c2nonc12`, the AC50 runs as follows: under setting [1], 15.8 µM [falling, single point]; under setting [2], 15.8 µM [falling, partial curve].

Turning to `O=C(CN1CCC(C(=O)c2ccc(Cl)cc2)CC1)Nc1ccc2c(c1)OCCO2`, the AC50 under setting [2] is 22.4 µM [rising, single point].

In the case of `O=S(=O)(c1ccc2c(c1)OCO2)N1CCN(c2nnnn2-c2ccccc2)CC1`, the AC50 is, setting by setting: under setting [1], 0.0501 µM [rising, full curve, poor fit]; under setting [2], 0.0501 µM [rising, full curve, poor fit].

On to `CCN(C(=O)c1coc(=O)c(Br)c1)c1ccc2c(c1)OCO2`, for which, under setting [2], the AC50 is 2.82 µM [falling, partial curve].

As for `Cc1ccc(S(=O)(=O)N(C)CC(=O)OCC(=O)N2CC(=O)Nc3ccccc32)cc1`, the AC50 under setting [2] was 0.0251 µM [rising, full curve, poor fit].

On to `COc1cccc(/C=N/Nc2ncnc3c2ncn3Cc2ccccc2)c1O`, for which the concentration at half-maximal activity (AC50) is, setting by setting: under setting [1], 1.78 µM [rising, full curve, poor fit]; under setting [2], 5.62 µM [rising, full curve].

For `N#Cc1nc(Cc2ccccc2)oc1N1CCC(Cc2ccccc2)CC1`, the AC50 was 11.2 µM [rising, partial curve, poor fit] under setting [1] and 22.4 µM [rising, single point] under setting [2].

For the compound `O=C(COc1ccc(Br)cc1)NNC(=S)NC(=O)c1ccccc1[N+](=O)[O-]`, the AC50 by setting is: under setting [1], 1 µM [falling, full curve, poor fit]; under setting [2], 35.5 µM [rising, single point].

On to `CN(c1ccccc1)c1ccc(/C=N/NC(=O)CC#N)cc1`, for which, under setting [2], the half-maximal activity concentration (AC50) was 4.47 µM [rising, partial curve, poor fit].

Regarding `Cc1cccc(-n2c(C)cc(/C=N/NC(=O)c3cccc([N+](=O)[O-])c3C)c2C)c1`, the AC50 under setting [1] was 35.5 µM [rising, single point] and the AC50 under setting [2] was 35.5 µM [rising, single point].

With `CCN(CC)c1ccc(/C=N/NC(=O)CCC(=O)NCc2ccccc2)c(O)c1`, the AC50 is, setting by setting: under setting [1], 3.98 µM [rising, partial curve, poor fit]; under setting [2], 6.31 µM [rising, partial curve].

In the case of `C[N+]1(CCCCSc2ccc(O)cc2)CCCCC1`, the AC50 under setting [2] is 11.2 µM [rising, partial curve].

For the compound `Cc1ccc(C)c(CNC(=O)c2ccc3c(c2)nc2n3CCCCC2)c1`, the AC50 runs as follows: under setting [1], 14.1 µM [falling, partial curve]; under setting [2], 12.6 µM [rising, single point].

Turning to `O=C(NCCc1cccs1)c1cccs1`, the half-maximal activity concentration (AC50) under setting [1] is 0.0112 µM [falling, full curve, poor fit].

As to `O=C1OC(CO)C(O)C(O)C1O` (configuration not stated), the AC50 under setting [1] was 0.398 µM [falling, partial curve, poor fit] and the AC50 under setting [2] is 0.794 µM [falling, partial curve, poor fit].

As to `N#C/C(=C/c1ccc(N2CCCC2)c([N+](=O)[O-])c1)c1nc2ccccc2[nH]1`, under setting [2], the half-maximal activity concentration (AC50) was 0.126 µM [falling, full curve, poor fit].

As for `O=C(CC(SCCO)c1ccc2c(c1)OCO2)c1ccco1` (configuration not stated), the AC50 reads like this: under setting [1], 22.4 µM [falling, single point]; under setting [2], 15.8 µM [falling, single point].

`CCCCNS(=O)(=O)c1ccc2nc(-c3cccnc3)cc(C(=O)NC3CC3)c2c1`: the AC50 is 12.6 µM [falling, single point] under setting [1] and 25.1 µM [falling, single point] under setting [2].

As for `Cc1ccc(NC(=O)C(=O)NCCN2CCN(C(=S)Nc3ccccc3)CC2)cc1`, under setting [2], the concentration at half-maximal activity (AC50) was 31.6 µM [rising, single point].

With `CC1CN(CC(=O)Nc2cccc(C(=O)Nc3cccc(C(F)(F)F)c3)c2)CC(C)O1` (configuration not stated), the AC50 under setting [2] is 14.1 µM [rising, single point].

With `O=c1oc2cc(O)ccc2cc1-c1nc2c(s1)CCc1ccccc1-2`, the AC50 is 3.16 µM [falling, full curve] under setting [1] and 3.16 µM [falling, full curve] under setting [2].

In the case of `COc1ccc(-c2csc3nc(-c4cccnc4)nc(N4CCC(C(N)=O)CC4)c23)cc1OC`, under setting [2], the AC50 is 35.5 µM [rising, single point].

For the compound `O=C(CSC1=NCCS1)N1CCN(c2ccccc2)CC1`, the AC50 under setting [2] was 14.1 µM [rising, partial curve].

Regarding `Cn1c(=O)c2c(ncn2CCNC2=NCCCCC2)n(C)c1=O`, the AC50 under setting [1] was 0.0126 µM [rising, full curve, poor fit] and the AC50 under setting [2] is 2.82 µM [rising, full curve, poor fit].

For `Cc1cn([C@H]2C[C@H](N=[N+]=[N-])[C@H](CO)O2)c(=O)[nH]c1=O`, the AC50 by setting is: under setting [1], 35.5 µM [rising, single point]; under setting [2], 31.6 µM [rising, single point].

Consider `CC(C)(C)n1ncc2c(=O)n(CC(=O)NCc3ccccc3)cnc21`, for which the AC50 under setting [2] is 25.1 µM [rising, partial curve].

For the compound `CC(C)CNc1oc(-c2ccccc2Cl)nc1C#N`, the AC50 reads like this: under setting [1], 0.501 µM [falling, full curve, poor fit]; under setting [2], 0.501 µM [falling, full curve].

Consider `CC(C)CCNC(=O)CSc1nc2ccccc2nc1Cc1ccccc1`, for which the AC50 is, setting by setting: under setting [1], 0.2 µM [rising, partial curve]; under setting [2], 0.1 µM [rising, full curve, poor fit].

For `COc1ccc(C(=O)/C=C/c2cc(C(=O)O)cc3c2OCOC3)c(O)c1`, the AC50 runs as follows: under setting [1], 35.5 µM [falling, single point]; under setting [2], 35.5 µM [falling, single point].

As for `CCOC(=O)c1ccc2c(c1)N(C(CC)C(=O)Nc1ccccc1OC)C(=O)c1ccccc1S2` (configuration not stated), the AC50 is, setting by setting: under setting [1], 31.6 µM [rising, single point]; under setting [2], 35.5 µM [rising, single point].

As to `CC(=O)c1sc(NC(=O)COc2ccc([N+](=O)[O-])cc2)nc1C`, under setting [2], the AC50 is 0.0501 µM [falling, full curve, poor fit].
